Data taken from publication PMC2956695.
Results are given in words; binding and its absence hold for the method and conditions named. In cells and extracts the contact can be indirect. A yes stands for co-enrichment or nearness to the bait. Other partners may have been found. Tags and fused reporters may be left off the sequences shown.

T1: Slm9-3XFLAG (S. pombe) (UniProt O74309)
T1 sequence: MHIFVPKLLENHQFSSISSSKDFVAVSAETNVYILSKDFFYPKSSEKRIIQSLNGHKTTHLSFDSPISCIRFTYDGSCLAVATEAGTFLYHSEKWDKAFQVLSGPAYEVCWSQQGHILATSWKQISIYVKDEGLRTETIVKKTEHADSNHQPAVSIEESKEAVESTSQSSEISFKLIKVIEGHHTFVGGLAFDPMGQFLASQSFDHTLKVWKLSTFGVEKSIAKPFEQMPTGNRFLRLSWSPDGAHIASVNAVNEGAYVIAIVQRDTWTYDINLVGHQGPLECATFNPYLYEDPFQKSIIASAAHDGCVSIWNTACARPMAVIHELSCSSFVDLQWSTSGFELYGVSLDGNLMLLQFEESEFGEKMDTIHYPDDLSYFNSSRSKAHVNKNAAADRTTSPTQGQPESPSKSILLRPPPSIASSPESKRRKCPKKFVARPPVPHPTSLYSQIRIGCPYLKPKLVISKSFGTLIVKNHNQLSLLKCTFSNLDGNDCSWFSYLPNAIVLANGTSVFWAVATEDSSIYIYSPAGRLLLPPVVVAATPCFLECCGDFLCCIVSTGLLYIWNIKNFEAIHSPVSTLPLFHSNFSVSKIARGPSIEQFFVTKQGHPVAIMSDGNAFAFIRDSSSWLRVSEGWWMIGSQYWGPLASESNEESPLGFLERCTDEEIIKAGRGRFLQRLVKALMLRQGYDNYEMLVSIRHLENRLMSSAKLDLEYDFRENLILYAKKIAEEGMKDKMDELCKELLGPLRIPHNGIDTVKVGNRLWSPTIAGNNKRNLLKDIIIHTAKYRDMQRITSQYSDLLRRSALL


Biological target: T1, Slm9-3XFLAG (S. pombe)
Experiment: affinity purification with mass spectrometry; extracts from 5 g of cells expressing Slm9-FLAG, Dynabeads coupled to anti-FLAG M2 antibody for 15 mins, Benzonase treatment, on-bead tryptic digestion, LC-MS/MS; listed proteins found in at least two independent purifications and absent from four control purifications from untagged cells

binding	Binder
binds	Gpd1, glycerol-3-phosphate dehydrogenase (protein, UniProt P21696 1-385) MSGYGQQGVSAANIDSIRPKKRLSIGVVGSGNWGTAIAKICGENARAHGHHFRSKVRMWVFEEEIEYKGEKRKLTEVFNEAHENVKYLPGIECPPNVIAVPDVREVARRADILVFVVPHQFIERVCDQMVGLIRPGAVGISCIKGVAVSKEGVRLYSEVISEKLGIYCGVLSGANVANEVAREQFCETTIGFNPPNEVDIPREQIAAVFDRPYFSVVSVDDVAGVALGGALKNVVAMAVGFADGLEWGGNTKAAIMRRGLLEMQKFATTFFDSDPRTMVEQSCGIADLVTSCLGGRNNRCAEAFVKTGKSLETLEKELLGGQLLQGAATSKDVHEFLLTKDMVKDFPLFTAVYNISYEDMDPKDLIIVLQPLKEDSENEGGTETE
binds	Hip1, HIRA protein (protein, UniProt P87314 1-932) MKIKKIPWLGHFDDRGHRLSIFSIHIHPDGSRIATGGLDGTIRIWSTEAINRENENENENEDLPKQLCCMSTHTGTVTSVRFSPNGQYLASGSDDRVVIIWHKEEAIPGLGSTFGSGEKHTENWRSYRRLLGHDNDIQDLCWSYDSQLVVSVGLDSSIIVWNGTTFERLKRIEAHQSHVKGITFDPAGKYFATESDDRTIKVWRVSDFSIEKTITGPFNNSPLSTYFRRPSWSPDGKHIAAPNAMNGPVSCVSIIERGTWTSEINLIGHEGPVEVTAFNPKLFRDKNDKLVCILACGGQDRSLSIWSSALPRPLLSCQNVFQKSIGDVCWSPDGLSLFLCSYDGNVLVCTFEKEEFGDMVSDEEISKALAKYGHGRHGIVLPESAKQLELEETAYAILKKPSSLSTTDPTLVPQSSSTPKSAQKTPQKLPAFLPNRLTAETVDTNKLTASKEQIASPKRPGPSDNGNEIPTKFVQKVTITKEGKKRVAPQLLTTLSATPSTSRLASTQLQHTGSSQLPPQQFSQPINSLPKGGVPILIVGNKTKVNHENDESDQALQEEKIEEGLLKNYYSSLIDSSTSISNINFEAPRYKTNIVHSLNNEQKYVLEVKNGTSEKNPTRIVALENGNTKWMDYLPRPVILVTGSIHFWSIACDDGSLHLYSLTGSRLLPPIMIESKASFLHCNNAYLLCISSSGMVYAWNVVNKTALFTANSLAPILSRVSNNVTIENNSTDIPHVVIASISKEGVPSVTLSTGETYVYSSTMLCWQRITEPWWAIGSREWDSSGLLQSNTQTESQPLKIYEHRTNNVLMDSGRGKLLQKMVADAITEEGYDDFETIVTINHLENKIASARLLKLDDEFLVTSEVYVRLLMHHGLWQKLEEFLGELRTQTKCSIKLSGREVVAKMLVVLRQAVQTDNEFDRANKLIEKYAST
binds	Sir1, sulfite reductase beta subunit (protein, UniProt Q1K9C2 1-1473) MSVKASINNSQEAVSRIAFRCSDALYVVHPNNSILNGALTESLKDLKKFETLNVSGKVPHVLPLKSHADPFAHIADAILAEEEVASTQPKQITSVVASADALFFATPHLYKLAHEPLVAHVAIESTEAFDFASVRDTGFVILFSGNRPGDSSEAALEDTLETASLAHRLALKLNTGVLHFYSPVYDTTAALENIETLPSKEDAQHARVAHIPIEEKQEDSEKEGNIKEAFVPPKFDQPERDAATSEYLESLSIKPFEYSGSDDATDVLLVFGSAASELAKAAVTSSVAVAIVRVLRPWLPSKLQEVLPTSTKRLTVLEPITSLPRKWDPLYLDVLSSFVASGSSIELFAVRYGLSSSEQATEIIKAVRDNLSGALKPSLVCDFTDGVSQVFVPTPPSIEEAYHKLLHRVFKSRLNIVNDPASSATKQNIPSRLIISPQFALGSVLEYENQRRAFCDEVATLLKEKNSSVSSESLEVLSNWIVSVDNLESPVDPELVISELKKDSSAPIKSLLDRSEFFTNVSHWIIGSDAWAYDLGNSALHQVLCLEKNVNLLIVDTQPYSTREAVRSSSRKKDIGLYAMNFGNAYVASTALYSSYTQLISALLEADKFKGPSVVLAYLPYHSADDDAITVLQETKKAVDIGYWPLYRWTPALEDGEYSDFKLDSERIRRELKTFLERDNYLTQLTLRVPSLARTLTQSFGAEVRHQQNVDSRNALNKLIEGLSGPPLTILFASDGGTAENVAKRLQNRASARGSKCKIMAMDDFPIEELGNEKNVVVLVSTAGQGEFPQNGREFWEAIKGADLNLSELKYGVFGFGDYEYWPRKEDKIYYNRPGKQLDARFVELGAAPLVTLGLGNDQDPDGWETAYNLWEPELWKALGLDNVEIDIDEPKPITNEDIKQASNFLRGTIFEGLADESTGALAESDCQLTKFHGIYMQDDRDIRDERKKQGLEPAYGFMIRARMPAGVCTPEQWIAMDDISTKWGNHTLKITTRQTFQWHGVLKKNLRNTIRNIVKVFLTTLGACGDVARNVTCSSTPNNETIHDQLFAVSKQISNELLPTTSSYHEIWIEDPETVEKRKVAGEAVQDVEPLYGPTYLPRKFKVGVAAPPYNDVDVYTNDVALIAIIENDKVLGFNVGIGGGMGTTHNNKKTYPRLATVVGYVLTDKIMEVVKAILIVQRDNGDRENRKHARLKYTVDTLGVSTFVEKVEEVLGYKFEEARDHPQFIKNHDDFEGWHKTEKNKYWRSIFVENGRIENNGILQFKTGLRELAERLYTEKSEAEFRLTANQHVILFNVAENELGWINEHMAKYKLDNNAFSGLRLSSAACVALPTCGLAMAESERYLPKLITKVEEIVYEAGLQKDSIVMRMTGCPNGCSRPWVAEIACVGKAPNTYNLMLGGGFYGQRLNKLYRSSVQEKEILNLLRPLIKRYALEREDGEHFGDWVIRAGIITAVENGGANGAVHEGVSPEAF

The remaining lines, values behind:

Binder	binding
Cct8, chaperonin-containing T-complex theta subunit (protein, UniProt P78921 1-546) MALRVPKASGPQLFREGYRIMQGVEDAVIRNCNAIRELSEITRTSLGPNGKNKIVVNHLQQTFLTNDAATIIRELEVIHPAAKLVVDATQQQENELGDAANFVVVFTGELLAKAENMIRMGLTPLEIAKGYEMALSHTMEVLEEICADKIETVESEKELIKAIRTCISSKQYGNEDFLSDLVAKAILTVLPKDPSKFNVDNIRVVKIMGSSLYNSQVVKGMVFPREPEGTVTRSKEAKVAVFSCPLDISQTETKGTVLLHNAQEMLDFSKGEENLIESHIKEIYDAGVRVVVTSGNVNDLVLHYLNRFEILVIRVPSKFELRRLCRVVGATPLARMGVPMPEEMGSVDVVETIEIGGDRVTVFRQVEDITRTATIVLRGATKTYLDDLERAIDDGVNIVKALVKDNRLIFGAGASDMQLCIRLISVGEKTPGIYQHAIKQYGEAFEVVPRTISENAGLDPTDVISKLYAAHHKENGESIGVDVECENDGTLDAKEAGIFDVLLAKKSAIRLATETVLTVLNVDQVVMSKPAGGPKPPGPNPHWDDD	binds
Ade1, phosphoribosylamine-glycine ligase (protein, UniProt P20772 1-788) MEPIIALLIGNGGREHTIAWKLCESPLISKVYVAPGNGGTASNGAESKMENVNIGVCDFEQLVKFALDKDVNLVIPGPELPLVEGIEGHFRRVGIPCFGPSALAARMEGSKVFSKDFMHRNNIPTAVYKSFSNYDHAKSFLDTCTFDVVIKADGLAAGKGVIIPKTKKEAFEALESIMLNEEFGSAGKNVVIEELLEGEELSILTFSDGYTCRSLPPAQDHKRAFDGDKGPNTGGMGCYAPTPVASPKLLETVQSTIIQPTIDGMRHEGYPLVGILFTGLMLTPSGPRVLEYNVRFGDPETQAVLPLLESDLAEIILACVNHRLDAIDIVISRKFSCAVVCVAGGYPGPYNKGDIITFDALKDKNTRIFHAGTSIRDGNVVTNGGRVLAVEATGDSVEAAVRLAYEGVKTVHFDKMFYRKDIAHHALNPKRKTREILTYENSGVSVDNGNEFVQRIKDLVKSTRRPGADADIGGFGGIFDLKQAGWNDPLLVSATDGVGSKLLIALSLNKHDTVGIDLVAMNVNDLVVQGAEPLIFLDYFATGSLDLKVSTSFVEGVVKGCKQAGCALVGGETSEMPGLYHDGHYDANGTSVGAVSRDDILPKPESFSKGDILLGLASDGVHSNGYSLVRKIVEYSDLEYTSVCPWDKNVRLGDSLLIPTRIYVKPLLHVIRKNIVKGMAHITGGGLVENVPRMLPSHLNAIIDVDTWEVPEVFKWLKDAGNVPISDMARTFNMGIGMVVAVASEDAEETMKELTSVGETVYRIGQLVDKESSSERCHLVNLNKWETF	binds
Dfr1, dihydrofolate reductase (protein, UniProt P36591 1-461) MSKPLKVLCLHGWIQSGPVFSKKMGSVQKYLSKYAELHFPTGPVVADEEADPNDEEEKKRLAALGGEQNGGKFGWFEVEDFKNTYGSWDESLECINQYMQEKGPFDGLIGFSQGAGIGAMLAQMLQPGQPPNPYVQHPPFKFVVFVGGFRAEKPEFDHFYNPKLTTPSLHIAGTSDTLVPLARSKQLVERCENAHVLLHPGQHIVPQQAVYKTGIRDFMFSAPTKEPTKHPRDLTMIVAVSSPNLGIGKKNSMPWHIKQEMAYFANVTSSTESSGQLEEGKSKIMNVVIMGRSCYDSLPKKNRPLKDRINIVITRNSNYNFGLTKKEKMPENLYAADCIDSALDLVAEKYGADSDIQVGKVFIIGGSFLYGSALYHPLTKNLLFTRIHKEYPCDSFFPFEPAESSDWVRKAHPELEKFVGIPVEEGRLKAASSNKEEVEIEFELYGKNDDVNVALEKLSIC	binds
